Measured values: patent US20260184786A1 (LINDIS BIOTECH, published 2026)
Where a chain is given by its changes, count along the chain named. Results are given in words; binding and its absence hold for the method and conditions named. Some entries that bind do so weakly or less than the wild type.

By UniProt entry, the sequences of proteins in these tests, tags left out. Where a name states a change or a piece, a line headed by the entry shows the natural chain unless it says otherwise. Residues count along the entry.
UniProt P02769, residues 25-607: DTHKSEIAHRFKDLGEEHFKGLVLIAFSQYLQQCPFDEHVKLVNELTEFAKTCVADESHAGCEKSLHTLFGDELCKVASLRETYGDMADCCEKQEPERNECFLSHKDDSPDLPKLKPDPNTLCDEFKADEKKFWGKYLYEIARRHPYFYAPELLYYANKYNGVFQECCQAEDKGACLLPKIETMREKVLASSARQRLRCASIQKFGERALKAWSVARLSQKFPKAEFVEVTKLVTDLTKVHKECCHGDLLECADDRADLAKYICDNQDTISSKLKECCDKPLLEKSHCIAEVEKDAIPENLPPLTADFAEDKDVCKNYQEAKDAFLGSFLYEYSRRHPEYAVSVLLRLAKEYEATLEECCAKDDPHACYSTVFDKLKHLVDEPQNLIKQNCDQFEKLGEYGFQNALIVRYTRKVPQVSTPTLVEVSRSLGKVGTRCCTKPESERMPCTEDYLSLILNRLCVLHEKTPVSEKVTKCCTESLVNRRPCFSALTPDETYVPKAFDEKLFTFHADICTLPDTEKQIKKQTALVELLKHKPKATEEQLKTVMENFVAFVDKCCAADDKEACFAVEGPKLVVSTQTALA
UniProt P07766: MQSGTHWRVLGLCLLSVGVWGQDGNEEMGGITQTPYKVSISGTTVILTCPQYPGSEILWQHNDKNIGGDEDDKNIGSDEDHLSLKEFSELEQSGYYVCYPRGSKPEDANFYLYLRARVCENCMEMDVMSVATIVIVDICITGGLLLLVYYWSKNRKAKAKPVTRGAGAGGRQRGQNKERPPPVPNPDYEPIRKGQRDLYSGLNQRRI
UniProt P09693: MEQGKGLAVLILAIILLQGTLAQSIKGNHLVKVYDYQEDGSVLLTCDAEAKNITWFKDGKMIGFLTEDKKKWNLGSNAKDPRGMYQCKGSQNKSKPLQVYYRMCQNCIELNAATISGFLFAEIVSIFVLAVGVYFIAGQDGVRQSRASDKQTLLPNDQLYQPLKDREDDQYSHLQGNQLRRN
UniProt P04234: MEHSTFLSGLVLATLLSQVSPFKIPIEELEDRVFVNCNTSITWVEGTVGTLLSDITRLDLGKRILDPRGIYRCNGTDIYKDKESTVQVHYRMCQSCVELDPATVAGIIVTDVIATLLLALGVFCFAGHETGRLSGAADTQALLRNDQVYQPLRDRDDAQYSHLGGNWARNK

B1: VH_V2_VL_V4 (antibody, V domains shown)
VH: EVQLVESGGGLVQPGRSLRLSCAASGFTFNNYWMSWVRQAPGKGLEWVSAITKTGGSTYYPDSVKGRFTISRDNSKSTLYLQMNSLRAEDTATYYCTREYYYDPYIDYWGQGVLVTVSS
VL: QFALTQPRSVSGSLGQSVTLSCTRTTGNIGSNYVNWYQQHEGKAPKTMIYRDDKRPSGVPDRFSGSIDRSSNTASLTISGVQAEDEADYYCQSYSSGINIFGGGTKLTVL
notes: also called HV2-LV4
B2: VH_V3_VL_V5 (antibody, V domains shown)
VH: B1 VH with S49A, A50S, S75A, A88S
VL: B1 VL with F2S, L14P, L20I, E41P, R69S, V81L
B3: VH_V4_VL_V2 (antibody, V domains shown)
VH: B1 VH with R16G, S35T, V37I, S49A, A50S, T93V, V113T
VL: QFALTQPRSVSGNLGSSVKISCKRTTGNIGSNYVNWYQQHEGKAPTTMIYRDDKRPDGVPDRFSGSKDRSGNTALLTINNLQTEDEADYYCQSYSSGINIFGGGTKLTVL
B4: VH_V2_VL_V5 (antibody, V domains shown)
VH: B1 VH
VL: B1 VL with F2S, L14P, L20I, E41P, R69S, V81L
B5: VH_V2_VL_V1 (antibody, V domains shown)
VH: B1 VH
VL: QSALTQPRSVSGSPGQSVTISCTGTTGNIGSNYVSWYQQHPGKAPKLMIYRDDKRPSGVPDRFSGSKSGNTASLTISGLQAEDEADYYCQSYSSGINIFGGGTKLTVL
B6: VH_V1_VL_V2 (antibody, V domains shown)
VH: B1 VH with R16G, P61A, S77N, T93V, V113T
VL: B3 VL
B7: VH_V1_VL_V5 (antibody, V domains shown)
VH: B1 VH with R16G, P61A, S77N, T93V, V113T
VL: B1 VL with F2S, L14P, L20I, E41P, R69S, V81L
B8: VH_V4_VL_V5 (antibody, V domains shown)
VH: B1 VH with R16G, S35T, V37I, S49A, A50S, T93V, V113T
VL: B1 VL with F2S, L14P, L20I, E41P, R69S, V81L
B9: VH_V4_VL_V1 (antibody, V domains shown)
VH: B1 VH with R16G, S35T, V37I, S49A, A50S, T93V, V113T
VL: B5 VL
notes: also called HV4-LV1
B10: VH_V2_VL_V2 (antibody, V domains shown)
VH: B1 VH
VL: B3 VL
notes: also called HV2-LV2
B11: VH_V1_VL_V1 (antibody, V domains shown)
VH: B1 VH with R16G, P61A, S77N, T93V, V113T
VL: B5 VL
B12: VH_V1_VL_V4 (antibody, V domains shown)
VH: B1 VH with R16G, P61A, S77N, T93V, V113T
VL: B1 VL
notes: also called HV1-LV4
B13: VH_V3_VL_V1 (antibody, V domains shown)
VH: B1 VH with S49A, A50S, S75A, A88S
VL: B5 VL
notes: also called HV3-LV1
B14: VH_V4_VL_V4 (antibody, V domains shown)
VH: B1 VH with R16G, S35T, V37I, S49A, A50S, T93V, V113T
VL: B1 VL
notes: also called HV4-LV4
B15: VH_V3_VL_V4 (antibody, V domains shown)
VH: B1 VH with S49A, A50S, S75A, A88S
VL: B1 VL
notes: also called HV3-LV4
B16: VH_V3_VL_V2 (antibody, V domains shown)
VH: B1 VH with S49A, A50S, S75A, A88S
VL: B3 VL
notes: also called HV3-LV2
B17: C3002HC-LV4 (antibody, V domains shown)
VH: EVQLVESGGGLVQPGGSLRLSCAASGFTFNNYWMTWIRQAPGKGLEWVASITKTGGSTYYPDSVKGRFTISRDNAKNSLYLQMNSLRAEDTAVYYCTREYYYDPYIDYWGQGTMVTVSS
VL: B1 VL
B18: C3002-2-HC-SLV1 (antibody, V domains shown)
VH: B17 VH with V93T, T113V
VL: NFMLTQPHSVSESPGKTVTISCTRSTGNIGSNYVQWYQQRPGSSPTTVIYRDDQRPSGVPDRFSGSIDSSSNSASLTISGLKTEDEADYYCQSYSSGINIFGGGTKLTVL
B19: HV1-SLV1 (antibody, V domains shown)
VH: B1 VH with R16G, P61A, S77N, T93V, V113T
VL: B18 VL
B20: SHV1-LV4 (antibody, V domains shown)
VH: B17 VH with T35S, I37V, S50N, P61V
VL: B1 VL
B21: HV2-SLV1 (antibody, V domains shown)
VH: B1 VH
VL: B18 VL
B22: HV3-SLV1 (antibody, V domains shown)
VH: B1 VH with S49A, A50S, S75A, A88S
VL: B18 VL
B23: HV4-SLV1 (antibody, V domains shown)
VH: B17 VH with A75S, N77S, S78T, M114L
VL: B18 VL
B24: C3002-2-HC-LV4 (antibody, V domains shown)
VH: B17 VH with V93T, T113V
VL: B1 VL
B25: C3002HC-SLV1 (antibody, V domains shown)
VH: B17 VH
VL: B18 VL

Each binder was assayed against BSA (bovine) (UniProt P02769) (assay: ELISA of Example 2, curve labelled BSA in the panel's legend box).

Row | binding | Binder
1 | no binding (tested: 10 µg/ml) | B1
2 | no binding (tested: 10 µg/ml) | B2
3 | no binding (tested: 10 µg/ml) | B3
4 | no binding (tested: 10 µg/ml) | B4
5 | no binding (tested: 10 µg/ml) | B5
6 | no binding (tested: 10 µg/ml) | B6
7 | no binding (tested: 10 µg/ml) | B7
8 | no binding (tested: 10 µg/ml) | B8
9 | no binding (tested: 10 µg/ml) | B9
10 | no binding (tested: 10 µg/ml) | B10
11 | no binding (tested: 10 µg/ml) | B11
12 | no binding (tested: 10 µg/ml) | B12
13 | no binding (tested: 10 µg/ml) | B13
14 | no binding (tested: 10 µg/ml) | B14
15 | no binding (tested: 10 µg/ml) | B15
16 | no binding (tested: 10 µg/ml) | B16

These binders were tested against T1, CD3 on Jurkat cells (human, UniProt P07766;P09693;P04234) (assay: flow cytometry on Jurkat cells, FITC-labelled secondary antibody, MFI (Example 3)).
T1 construct: on the surface of Jurkat cells

Row | binding | Binder
17 | binds | B1
18 | binds | B17
19 | binds | B18
20 | binds | B19
21 | binds | B20
22 | binds | B21
23 | binds | B22
24 | binds | B23
25 | binds | B12
26 | binds | B24
27 | binds | B14
28 | binds | B15
29 | binds | B25

What follows are binders tested against T2, Human CD3E & CD3G (human, UniProt P07766;P09693) (assay: ELISA, plate coated with CD3E & CD3G heterodimer protein (100 ng/well), anti-His tag HRP detection (Example 2)).
T2 construct: recombinant, tag given as Lama Fc; also called CD3E & CD3G heterodimer protein; CD3E/G antigen

Row | binding | Binder
30 | binds | B1
31 | binds | B2
32 | binds | B3
33 | binds | B4
34 | binds | B7
35 | binds | B11
36 | binds | B12
37 | binds | B14
38 | binds | B15
